Measurements as given in the supplement of paper PMC12823440, “Inhibitors supercharge kinase turnover through native proteolytic circuits” (Nature, 2025).
Where a name gives a salt, the structure may show the parent alone. This is one part of the list. Hit calls seldom repeat between salt and free forms of one compound.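 In K562 cells expressing nanoluciferase-fused kinases, luminescence was recorded at 4 h intervals between 2 and 18 h, normalized as percent of control with DMSO at 100% and a positive control at 0%. A significant (2 sigma) signal drop marks a time point as decreased. The authors' rule for a hit is not shown and takes in more than the number of time points.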

Amino acid sequences for entries named in this document (tags omitted). A change or cut given only in a name is not applied to a line headed by its entry.
UniProt P50613: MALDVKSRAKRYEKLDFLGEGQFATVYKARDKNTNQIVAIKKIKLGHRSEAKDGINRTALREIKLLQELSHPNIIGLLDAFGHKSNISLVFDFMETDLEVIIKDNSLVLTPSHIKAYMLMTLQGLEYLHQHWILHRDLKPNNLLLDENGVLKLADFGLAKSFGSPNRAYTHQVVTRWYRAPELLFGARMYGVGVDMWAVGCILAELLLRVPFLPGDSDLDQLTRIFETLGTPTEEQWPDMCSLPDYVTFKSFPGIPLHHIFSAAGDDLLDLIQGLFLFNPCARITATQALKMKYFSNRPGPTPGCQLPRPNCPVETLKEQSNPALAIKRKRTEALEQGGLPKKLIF
UniProt P50750, whole entry: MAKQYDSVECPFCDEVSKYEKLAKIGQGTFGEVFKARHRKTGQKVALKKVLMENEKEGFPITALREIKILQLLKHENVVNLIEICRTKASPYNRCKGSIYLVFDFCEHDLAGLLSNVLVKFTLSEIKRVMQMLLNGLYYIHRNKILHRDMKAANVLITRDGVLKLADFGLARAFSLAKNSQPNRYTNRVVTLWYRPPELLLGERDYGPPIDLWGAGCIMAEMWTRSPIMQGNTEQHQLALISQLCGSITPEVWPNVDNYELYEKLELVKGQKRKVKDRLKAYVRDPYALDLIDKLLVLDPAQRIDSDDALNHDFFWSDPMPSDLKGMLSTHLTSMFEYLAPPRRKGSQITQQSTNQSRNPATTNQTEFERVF
UniProt O96017, whole entry: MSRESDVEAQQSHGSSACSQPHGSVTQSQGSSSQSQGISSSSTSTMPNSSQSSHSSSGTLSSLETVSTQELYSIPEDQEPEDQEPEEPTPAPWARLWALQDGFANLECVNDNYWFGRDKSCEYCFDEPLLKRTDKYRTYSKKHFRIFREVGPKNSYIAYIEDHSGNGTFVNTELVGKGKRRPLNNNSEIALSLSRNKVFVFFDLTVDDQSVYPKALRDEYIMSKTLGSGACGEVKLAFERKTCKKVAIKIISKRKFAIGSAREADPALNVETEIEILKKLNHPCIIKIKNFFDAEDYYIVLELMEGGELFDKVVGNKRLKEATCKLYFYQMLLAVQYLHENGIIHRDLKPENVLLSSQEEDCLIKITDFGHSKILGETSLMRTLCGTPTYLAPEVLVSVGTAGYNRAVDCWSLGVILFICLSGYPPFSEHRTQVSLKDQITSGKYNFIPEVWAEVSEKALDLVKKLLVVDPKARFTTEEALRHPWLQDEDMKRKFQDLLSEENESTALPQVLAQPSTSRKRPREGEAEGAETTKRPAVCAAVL
UniProt P07333, whole entry: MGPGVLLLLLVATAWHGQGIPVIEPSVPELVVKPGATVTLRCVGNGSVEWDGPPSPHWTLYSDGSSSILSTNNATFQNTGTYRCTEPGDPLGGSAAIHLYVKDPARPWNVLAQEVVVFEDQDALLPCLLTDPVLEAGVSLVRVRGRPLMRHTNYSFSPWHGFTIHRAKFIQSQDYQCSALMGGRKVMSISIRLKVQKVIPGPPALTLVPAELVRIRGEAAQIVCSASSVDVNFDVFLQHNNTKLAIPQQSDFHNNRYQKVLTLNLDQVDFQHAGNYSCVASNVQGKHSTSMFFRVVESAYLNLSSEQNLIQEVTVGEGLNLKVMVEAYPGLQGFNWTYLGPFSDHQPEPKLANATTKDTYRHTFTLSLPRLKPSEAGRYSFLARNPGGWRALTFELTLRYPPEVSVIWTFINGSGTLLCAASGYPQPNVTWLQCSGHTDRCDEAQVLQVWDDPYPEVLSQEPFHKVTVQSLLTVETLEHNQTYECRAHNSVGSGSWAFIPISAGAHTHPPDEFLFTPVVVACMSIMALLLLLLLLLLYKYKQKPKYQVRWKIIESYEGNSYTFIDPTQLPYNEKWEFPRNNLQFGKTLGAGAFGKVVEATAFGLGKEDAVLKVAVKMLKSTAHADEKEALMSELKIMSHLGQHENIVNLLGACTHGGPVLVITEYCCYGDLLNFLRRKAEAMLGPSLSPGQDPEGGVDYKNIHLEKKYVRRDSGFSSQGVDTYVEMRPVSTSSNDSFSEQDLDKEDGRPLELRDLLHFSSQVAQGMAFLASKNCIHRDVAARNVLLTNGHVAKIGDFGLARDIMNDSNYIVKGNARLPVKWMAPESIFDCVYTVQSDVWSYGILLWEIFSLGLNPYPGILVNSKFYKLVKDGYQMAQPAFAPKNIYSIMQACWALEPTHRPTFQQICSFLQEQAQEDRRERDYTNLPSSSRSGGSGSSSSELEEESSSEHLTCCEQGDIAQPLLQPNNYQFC
UniProt P41240: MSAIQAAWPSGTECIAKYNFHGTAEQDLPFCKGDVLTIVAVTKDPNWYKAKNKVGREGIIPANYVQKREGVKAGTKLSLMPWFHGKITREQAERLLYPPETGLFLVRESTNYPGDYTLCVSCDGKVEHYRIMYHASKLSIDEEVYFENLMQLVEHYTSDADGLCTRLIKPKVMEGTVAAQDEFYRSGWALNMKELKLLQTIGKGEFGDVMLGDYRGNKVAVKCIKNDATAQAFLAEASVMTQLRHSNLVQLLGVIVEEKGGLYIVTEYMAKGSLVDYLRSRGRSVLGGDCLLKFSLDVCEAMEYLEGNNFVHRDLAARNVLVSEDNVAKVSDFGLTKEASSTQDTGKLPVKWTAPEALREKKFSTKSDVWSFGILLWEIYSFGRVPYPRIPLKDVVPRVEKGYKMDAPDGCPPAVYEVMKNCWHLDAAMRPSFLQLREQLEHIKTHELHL
UniProt P48729: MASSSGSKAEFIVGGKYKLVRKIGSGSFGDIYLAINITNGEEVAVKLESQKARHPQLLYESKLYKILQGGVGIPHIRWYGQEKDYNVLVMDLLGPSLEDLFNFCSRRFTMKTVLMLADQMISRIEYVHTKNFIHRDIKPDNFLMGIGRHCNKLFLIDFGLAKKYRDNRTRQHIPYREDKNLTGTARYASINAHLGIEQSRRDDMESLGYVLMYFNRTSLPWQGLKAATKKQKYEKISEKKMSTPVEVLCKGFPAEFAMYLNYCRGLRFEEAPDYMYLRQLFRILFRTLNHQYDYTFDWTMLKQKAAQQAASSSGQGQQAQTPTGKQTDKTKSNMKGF
UniProt P48730: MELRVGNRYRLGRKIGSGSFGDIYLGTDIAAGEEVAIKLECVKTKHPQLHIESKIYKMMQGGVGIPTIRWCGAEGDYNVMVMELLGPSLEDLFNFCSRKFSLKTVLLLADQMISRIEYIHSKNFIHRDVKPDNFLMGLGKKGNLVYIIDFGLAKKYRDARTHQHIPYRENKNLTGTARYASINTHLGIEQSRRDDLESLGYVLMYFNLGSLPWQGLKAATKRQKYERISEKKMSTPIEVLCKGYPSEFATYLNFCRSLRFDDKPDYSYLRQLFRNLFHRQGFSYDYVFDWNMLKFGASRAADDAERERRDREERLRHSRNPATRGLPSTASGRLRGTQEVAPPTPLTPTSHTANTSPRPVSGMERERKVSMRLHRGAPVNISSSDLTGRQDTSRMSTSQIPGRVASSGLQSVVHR
UniProt Q08345: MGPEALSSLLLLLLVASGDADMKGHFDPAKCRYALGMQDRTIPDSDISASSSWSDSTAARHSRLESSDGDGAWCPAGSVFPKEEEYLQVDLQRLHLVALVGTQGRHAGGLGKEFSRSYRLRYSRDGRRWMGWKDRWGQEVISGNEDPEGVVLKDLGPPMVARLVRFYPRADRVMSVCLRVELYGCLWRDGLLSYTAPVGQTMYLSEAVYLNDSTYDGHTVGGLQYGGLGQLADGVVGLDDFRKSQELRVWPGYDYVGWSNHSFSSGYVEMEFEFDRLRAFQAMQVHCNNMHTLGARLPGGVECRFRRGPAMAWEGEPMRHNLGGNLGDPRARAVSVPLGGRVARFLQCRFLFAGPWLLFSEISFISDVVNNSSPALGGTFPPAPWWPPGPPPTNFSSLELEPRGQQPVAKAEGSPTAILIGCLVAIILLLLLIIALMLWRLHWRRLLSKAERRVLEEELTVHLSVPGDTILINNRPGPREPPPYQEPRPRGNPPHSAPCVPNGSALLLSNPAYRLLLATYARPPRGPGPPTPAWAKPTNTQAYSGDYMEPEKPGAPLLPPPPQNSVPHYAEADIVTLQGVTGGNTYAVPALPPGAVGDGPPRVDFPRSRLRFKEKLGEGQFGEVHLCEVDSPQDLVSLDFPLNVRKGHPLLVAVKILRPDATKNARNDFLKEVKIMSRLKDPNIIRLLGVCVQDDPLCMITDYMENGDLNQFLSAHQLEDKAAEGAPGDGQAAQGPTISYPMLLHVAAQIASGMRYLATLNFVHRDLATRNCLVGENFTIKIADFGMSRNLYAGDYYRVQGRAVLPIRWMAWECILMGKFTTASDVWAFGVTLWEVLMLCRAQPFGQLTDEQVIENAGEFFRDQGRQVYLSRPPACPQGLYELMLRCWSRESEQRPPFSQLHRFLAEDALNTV
UniProt Q9Y463, whole entry, looked up: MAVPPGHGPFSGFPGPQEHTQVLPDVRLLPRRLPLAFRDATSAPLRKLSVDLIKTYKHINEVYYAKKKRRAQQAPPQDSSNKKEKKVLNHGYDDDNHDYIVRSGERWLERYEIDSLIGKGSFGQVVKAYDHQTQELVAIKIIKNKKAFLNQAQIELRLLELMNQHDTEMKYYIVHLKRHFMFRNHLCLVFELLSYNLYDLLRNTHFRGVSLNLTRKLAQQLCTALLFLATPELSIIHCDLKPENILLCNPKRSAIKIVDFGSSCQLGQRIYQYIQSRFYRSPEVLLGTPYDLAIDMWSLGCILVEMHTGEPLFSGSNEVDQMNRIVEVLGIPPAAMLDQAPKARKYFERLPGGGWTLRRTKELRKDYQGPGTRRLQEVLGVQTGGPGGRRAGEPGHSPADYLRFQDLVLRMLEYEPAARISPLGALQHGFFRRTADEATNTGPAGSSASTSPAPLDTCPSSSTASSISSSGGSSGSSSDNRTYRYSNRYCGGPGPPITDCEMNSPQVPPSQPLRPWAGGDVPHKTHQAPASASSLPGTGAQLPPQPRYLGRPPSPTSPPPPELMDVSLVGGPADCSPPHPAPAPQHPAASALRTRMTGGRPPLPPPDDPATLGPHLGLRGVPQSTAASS
UniProt Q92630: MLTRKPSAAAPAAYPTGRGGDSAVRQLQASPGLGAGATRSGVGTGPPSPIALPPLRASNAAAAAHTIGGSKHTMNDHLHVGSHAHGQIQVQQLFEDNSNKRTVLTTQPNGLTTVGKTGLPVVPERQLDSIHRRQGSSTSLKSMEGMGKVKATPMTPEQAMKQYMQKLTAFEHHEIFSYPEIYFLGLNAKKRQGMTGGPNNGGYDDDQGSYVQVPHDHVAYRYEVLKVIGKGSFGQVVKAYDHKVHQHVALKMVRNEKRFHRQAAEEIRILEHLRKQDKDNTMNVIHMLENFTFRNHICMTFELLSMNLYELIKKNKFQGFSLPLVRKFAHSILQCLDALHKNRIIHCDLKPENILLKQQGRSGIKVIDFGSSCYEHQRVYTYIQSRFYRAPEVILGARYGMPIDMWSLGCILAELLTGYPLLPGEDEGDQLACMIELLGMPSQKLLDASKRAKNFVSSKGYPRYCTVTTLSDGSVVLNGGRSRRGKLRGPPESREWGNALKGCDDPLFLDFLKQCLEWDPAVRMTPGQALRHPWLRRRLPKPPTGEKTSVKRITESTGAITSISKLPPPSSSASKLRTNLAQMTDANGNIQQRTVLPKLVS

How the values were obtained:
Test in all cases: kinase-Nluc reporter destabilization hit call (1 = scored as downregulated) (binary); higher = compound decreases kinase abundance
Settings in all cases: K562, 2-18 h
[1] = biological target: CDK7 (UniProt P50613)
[2] = biological target: CDK9 (UniProt P50750)
[3] = biological target: CHEK2 (UniProt O96017)
[4] = biological target: CSF1R (UniProt P07333)
[5] = biological target: CSK (UniProt P41240)
[6] = biological target: CSNK1A1 (UniProt P48729)
[7] = biological target: CSNK1D (UniProt P48730)
[8] = biological target: DDR1 (UniProt Q08345)
[9] = biological target: DYRK1B (UniProt Q9Y463)
[10] = biological target: DYRK2 (UniProt Q92630)

Measured: kinase-Nluc reporter destabilization hit call

Nc1ncnc2n[nH]c(-c3ccc(Oc4ccccc4)cc3)c12 [Ibrutinib deacryloylpiperidine]
inactive: [1]; 10 µM 0 | [2]; 10 µM 0 | [3]; 10 µM 0 | [4]; 10 µM 0 | [5]; 10 µM 0 | [6]; 10 µM 0 | [7]; 10 µM 0 | [8]; 10 µM 0 | [9]; 10 µM 0 | [10]; 10 µM 0

O=S(=O)(c1cccc2c(O)nccc12)N1CCCNCC1 [Hydroxyfasudil (hydrochloride)]
inactive: [1]; 10 µM 0 | [2]; 10 µM 0 | [3]; 10 µM 0 | [4]; 10 µM 0 | [5]; 10 µM 0 | [6]; 10 µM 0 | [7]; 10 µM 0 | [8]; 10 µM 0 | [9]; 10 µM 0 | [10]; 10 µM 0

Cc1cnc(Nc2ccc(OCCN3CCCC3)cc2)nc1Nc1cccc(S(=O)(=O)NC(C)(C)C)c1 [Fedratinib (hydrochloride hydrate)]
inactive: [1]; 2.5 µM 0 | [2]; 2.5 µM 0 | [3]; 2.5 µM 0 | [4]; 2.5 µM 0 | [5]; 2.5 µM 0 | [6]; 2.5 µM 0 | [7]; 2.5 µM 0 | [8]; 2.5 µM 0 | [9]; 2.5 µM 0 | [10]; 2.5 µM 0

Fc1ccc(-c2nc(-c3ccc4ccccc4c3F)[nH]c2-c2ccncc2)cc1
inactive: [1]; 10 µM 0 | [2]; 10 µM 0 | [3]; 10 µM 0 | [4]; 10 µM 0 | [5]; 10 µM 0 | [6]; 10 µM 0 | [7]; 10 µM 0 | [8]; 10 µM 0 | [9]; 10 µM 0 | [10]; 10 µM 0

N#CC(=Cc1cc(Cl)cc(Cl)c1)c1cccnc1
inactive: [1]; 10 µM 0 | [2]; 10 µM 0 | [3]; 10 µM 0 | [4]; 10 µM 0 | [5]; 10 µM 0 | [6]; 10 µM 0 | [7]; 10 µM 0 | [8]; 10 µM 0

COc1ccc(-c2cc(C(=O)NN=C(C)c3ccc(OC)c(OC)c3)[nH]n2)cc1
inactive: [1]; 10 µM 0 | [2]; 10 µM 0 | [3]; 10 µM 0 | [5]; 10 µM 0 | [6]; 10 µM 0 | [7]; 10 µM 0 | [8]; 10 µM 0 | [9]; 10 µM 0 | [10]; 10 µM 0
active: [4]; 10 µM 1

C=CC(=O)Nc1cc2c(Nc3ccc(F)c(Cl)c3)ncnc2cc1OCCCN1CCOCC1 [Canertinib]
inactive: [1]; 10 µM 0 | [2]; 10 µM 0 | [3]; 10 µM 0 | [4]; 10 µM 0 | [5]; 10 µM 0 | [6]; 10 µM 0 | [7]; 10 µM 0 | [8]; 10 µM 0 | [9]; 10 µM 0 | [10]; 10 µM 0

NC(=O)c1c(OCc2c(F)cc(Br)cc2F)nsc1NC(=O)NCCCCN1CCCC1
inactive: [1]; 2.5 µM 0 | [2]; 2.5 µM 0 | [3]; 2.5 µM 0 | [4]; 2.5 µM 0 | [5]; 2.5 µM 0 | [6]; 2.5 µM 0 | [7]; 2.5 µM 0 | [8]; 2.5 µM 0 | [9]; 2.5 µM 0 | [10]; 2.5 µM 0

NC1(C(=O)N[C@@H](CCO)c2ccc(Cl)cc2)CCN(c2nc[nH]c3nccc2-3)CC1 [Capivasertib]
inactive: [1]; 10 µM 0 | [2]; 10 µM 0 | [3]; 10 µM 0 | [4]; 10 µM 0 | [5]; 10 µM 0 | [6]; 10 µM 0 | [7]; 10 µM 0 | [8]; 10 µM 0 | [9]; 10 µM 0 | [10]; 10 µM 0

C[C@@H]1CN(C(=O)Nc2ccc(-c3nc(N4CCOCC4)c4cnn(CCCCCCC(=O)NO)c4n3)cc2)CCO1 [HDACs/mTOR Inhibitor 1]
inactive: [1]; 10 µM 0 | [2]; 10 µM 0 | [3]; 10 µM 0 | [4]; 10 µM 0 | [5]; 10 µM 0 | [6]; 10 µM 0 | [7]; 10 µM 0 | [8]; 10 µM 0 | [9]; 10 µM 0 | [10]; 10 µM 0

Cc1cc2c(F)c(Oc3ncnn4cc(OC[C@@H](C)O)c(C)c34)ccc2[nH]1 [Brivanib]
inactive: [1]; 10 µM 0 | [2]; 10 µM 0 | [3]; 10 µM 0 | [4]; 10 µM 0 | [5]; 10 µM 0 | [6]; 10 µM 0 | [7]; 10 µM 0 | [8]; 10 µM 0 | [9]; 10 µM 0 | [10]; 10 µM 0

C=CC(=O)N1C[C@@H](Nc2ncnc3[nH]ccc23)CC[C@H]1C [(2R,5S)-Ritlecitinib]
inactive: [1]; 10 µM 0 | [2]; 10 µM 0 | [3]; 10 µM 0 | [4]; 10 µM 0 | [5]; 10 µM 0 | [6]; 10 µM 0 | [7]; 10 µM 0 | [8]; 10 µM 0 | [9]; 10 µM 0 | [10]; 10 µM 0

C=CC(=O)N1CCC[C@@H](n2nc(-c3ccc(Oc4ccccc4)cc3)c3c(N)ncnc32)C1 [Ibrutinib]
inactive: [1]; 2.5 µM 0 | [2]; 2.5 µM 0 | [3]; 2.5 µM 0 | [4]; 2.5 µM 0 | [5]; 2.5 µM 0 | [6]; 2.5 µM 0 | [7]; 2.5 µM 0 | [8]; 2.5 µM 0 | [9]; 2.5 µM 0 | [10]; 2.5 µM 0

COc1nccc(-c2c(-c3ccc(F)cc3)ncn2C2CCNCC2)n1
inactive: [1]; 10 µM 0 | [2]; 10 µM 0 | [3]; 10 µM 0 | [4]; 10 µM 0 | [5]; 10 µM 0 | [6]; 10 µM 0 | [7]; 10 µM 0 | [8]; 10 µM 0 | [9]; 10 µM 0 | [10]; 10 µM 0

Nc1ncccc1-c1nc2ccc(-c3ccccc3)nc2n1-c1ccc(C2(N)CCC2)cc1 [Miransertib]
inactive: [1]; 10 µM 0 | [2]; 10 µM 0 | [3]; 10 µM 0 | [4]; 10 µM 0 | [5]; 10 µM 0 | [6]; 10 µM 0 | [7]; 10 µM 0 | [8]; 10 µM 0 | [9]; 10 µM 0 | [10]; 10 µM 0

CCOc1cc2ncc(C#N)c(Nc3ccc(F)c(Cl)c3)c2cc1NC(=O)/C=C/CN(C)C [Pelitinib]
inactive: [1]; 2.5 µM 0 | [2]; 2.5 µM 0 | [3]; 2.5 µM 0 | [4]; 2.5 µM 0 | [5]; 2.5 µM 0 | [6]; 2.5 µM 0 | [7]; 2.5 µM 0 | [8]; 2.5 µM 0 | [9]; 2.5 µM 0 | [10]; 2.5 µM 0

C=CC(=O)N(C)CCOc1c(N)ncnc1-c1cc(F)cc(NC(=O)c2ccc(C3CC3)cc2F)c1C [Remibrutinib]
inactive: [1]; 10 µM 0 | [2]; 10 µM 0 | [3]; 10 µM 0 | [4]; 10 µM 0 | [5]; 10 µM 0 | [6]; 10 µM 0 | [7]; 10 µM 0 | [8]; 10 µM 0 | [9]; 10 µM 0 | [10]; 10 µM 0

CC(C)[C@@](C)(O)[C@@H]1CN(c2nc(-c3[nH]nc4ncccc34)c(F)cc2Cl)CCN1
inactive: [1]; 10 µM 0 | [2]; 10 µM 0 | [3]; 10 µM 0 | [4]; 10 µM 0 | [5]; 10 µM 0 | [6]; 10 µM 0 | [7]; 10 µM 0 | [8]; 10 µM 0 | [9]; 10 µM 0 | [10]; 10 µM 0

Nc1ncnc2c1c(-c1cnc3[nH]ccc3c1)nn2C1CCCC1
active: [2]; 2.5 µM 1
inactive: [1]; 2.5 µM 0 | [3]; 2.5 µM 0 | [4]; 2.5 µM 0 | [5]; 2.5 µM 0 | [6]; 2.5 µM 0 | [7]; 2.5 µM 0 | [8]; 2.5 µM 0 | [9]; 2.5 µM 0 | [10]; 2.5 µM 0

C[C@@H]1O[C@@H](Oc2c(-c3ccc(O)c(O)c3)oc3cc(O)cc(O)c3c2=O)[C@H](O)[C@H](O)[C@H]1O [Quercitrin]
inactive: [1]; 10 µM 0 | [2]; 10 µM 0 | [3]; 10 µM 0 | [4]; 10 µM 0 | [5]; 10 µM 0 | [6]; 10 µM 0 | [7]; 10 µM 0 | [8]; 10 µM 0 | [9]; 10 µM 0 | [10]; 10 µM 0

C=CC(=O)N1CCC([C@@H]2CCNc3c(C(N)=O)c(-c4ccc(Oc5ccccc5)cc4)nn32)CC1 [Zanubrutinib]
inactive: [1]; 10 µM 0 | [2]; 10 µM 0 | [3]; 10 µM 0 | [4]; 10 µM 0 | [5]; 10 µM 0 | [6]; 10 µM 0 | [7]; 10 µM 0 | [8]; 10 µM 0 | [9]; 10 µM 0 | [10]; 10 µM 0

Cc1cc(C)n2c1C=C1C=CC(CCC(=O)NCCN3CCN(C/C=C/C(=O)N4CCCC(n5nc(-c6ccc(Oc7ccccc7)cc6)c6c(N)ncnc65)C4)CC3)=[N+]1[B-]2(F)F (stereo not drawn)
inactive: [1]; 2.5 µM 0 | [2]; 2.5 µM 0 | [3]; 2.5 µM 0 | [4]; 2.5 µM 0 | [5]; 2.5 µM 0 | [6]; 2.5 µM 0 | [7]; 2.5 µM 0 | [8]; 2.5 µM 0 | [9]; 2.5 µM 0 | [10]; 2.5 µM 0

Cc1cnc(Nc2ccc(OCCN3CCCC3)cc2)nc1Nc1cccc(S(=O)(=O)NC(C)(C)C)c1 [Fedratinib]
inactive: [1]; 2.5 µM 0 | [2]; 2.5 µM 0 | [3]; 2.5 µM 0 | [4]; 2.5 µM 0 | [5]; 2.5 µM 0 | [6]; 2.5 µM 0 | [7]; 2.5 µM 0 | [8]; 2.5 µM 0 | [9]; 2.5 µM 0 | [10]; 2.5 µM 0

O=C(c1ccc(/C=C/c2n[nH]c3ccccc23)cc1)N1CCNCC1
inactive: [1]; 2.5 µM 0 | [2]; 2.5 µM 0 | [3]; 2.5 µM 0 | [4]; 2.5 µM 0 | [5]; 2.5 µM 0 | [6]; 2.5 µM 0 | [7]; 2.5 µM 0 | [8]; 2.5 µM 0 | [9]; 2.5 µM 0 | [10]; 2.5 µM 0

COc1cc(N2CCN(C)CC2)ccc1Nc1nccc(-c2cn(C)c3cnccc23)n1
inactive: [1]; 10 µM 0 | [2]; 10 µM 0 | [3]; 10 µM 0 | [4]; 10 µM 0 | [5]; 10 µM 0 | [6]; 10 µM 0 | [7]; 10 µM 0 | [8]; 10 µM 0 | [9]; 10 µM 0 | [10]; 10 µM 0

Cn1cc(/C=C2\C(=O)Nc3cccnc32)c2ccccc21
inactive: [1]; 10 µM 0 | [2]; 10 µM 0 | [3]; 10 µM 0 | [4]; 10 µM 0 | [5]; 10 µM 0 | [6]; 10 µM 0 | [7]; 10 µM 0 | [8]; 10 µM 0 | [9]; 10 µM 0 | [10]; 10 µM 0

2 neighbouring records out of the list so far, quoted:
Cc1cc(C)n2c1C=C1C=CC(CCC(=O)NCCN3CCN(C/C=C/C(=O)N4CCCC(n5nc(-c6ccc(Oc7ccccc7)cc6)c6c(N)ncnc65)C4)CC3)=[N+]1[B-]2(F)F (stereo not drawn)
inactive: [1]; 2.5 µM 0 | [2]; 2.5 µM 0 | [3]; 2.5 µM 0 | [4]; 2.5 µM 0 | [5]; 2.5 µM 0 | [6]; 2.5 µM 0 | [7]; 2.5 µM 0 | [8]; 2.5 µM 0 | [9]; 2.5 µM 0 | [10]; 2.5 µM 0

Cc1cnc(Nc2ccc(OCCN3CCCC3)cc2)nc1Nc1cccc(S(=O)(=O)NC(C)(C)C)c1 [Fedratinib]
inactive: [1]; 2.5 µM 0 | [2]; 2.5 µM 0 | [3]; 2.5 µM 0 | [4]; 2.5 µM 0 | [5]; 2.5 µM 0 | [6]; 2.5 µM 0 | [7]; 2.5 µM 0 | [8]; 2.5 µM 0 | [9]; 2.5 µM 0 | [10]; 2.5 µM 0

Continuation:

CC(C)N(CCC(=O)c1ccc2ccccc2c1)Cc1ccccc1
inactive: [1]; 10 µM 0 | [2]; 10 µM 0 | [3]; 10 µM 0 | [4]; 10 µM 0 | [5]; 10 µM 0 | [6]; 10 µM 0 | [7]; 10 µM 0 | [8]; 10 µM 0 | [9]; 10 µM 0 | [10]; 10 µM 0

CN1CCN(c2nc(C3=C(c4c[nH]c5ccccc45)C(=O)NC3=O)c3ccccc3n2)CC1 [Sotrastaurin]
inactive: [1]; 2.5 µM 0 | [2]; 2.5 µM 0 | [3]; 2.5 µM 0 | [4]; 2.5 µM 0 | [5]; 2.5 µM 0 | [6]; 2.5 µM 0 | [7]; 2.5 µM 0 | [8]; 2.5 µM 0 | [9]; 2.5 µM 0 | [10]; 2.5 µM 0

COc1cc(N2CCC(N3CCN(C)CC3)CC2)ccc1Nc1ncc(Cl)c(Nc2ccccc2S(=O)(=O)C(C)C)n1
inactive: [1]; 2.5 µM 0 | [2]; 2.5 µM 0 | [3]; 2.5 µM 0 | [4]; 2.5 µM 0 | [5]; 2.5 µM 0 | [6]; 2.5 µM 0 | [7]; 2.5 µM 0 | [8]; 2.5 µM 0 | [9]; 2.5 µM 0 | [10]; 2.5 µM 0

CCn1c(=O)c(-c2cc(NC(=O)Nc3ccccc3)c(F)cc2Br)cc2cnc(NC)cc21 [Ripretinib]
active: [10]; 10 µM 1
inactive: [1]; 10 µM 0 | [2]; 10 µM 0 | [3]; 10 µM 0 | [4]; 10 µM 0 | [5]; 10 µM 0 | [6]; 10 µM 0 | [7]; 10 µM 0 | [8]; 10 µM 0 | [9]; 10 µM 0
